From patent publication US10537610B1, “Peptide for inhibition of cancer” (priority 2018, dated 2020)
At least one compound was matched to its structure with a doubt left.

Test system: HMEC-1 endothelial monolayer
Type: cell-based, human
Conditions: compound applied 24 hours after treatment with inflammatory cytokines (TNF/IFN)
Protocol: The cells were treated with the peptide P4D for 0, 1, 5, or 24 hours at a concentration of 500 μM. The cells treated with the Scrambled peptide P4D (Scr; 500 μM; 0, 1, 5, or 24 hours incubation time) were used as a negative control. In order to provide the positive control of the junctions tightening for impedance-based measurements of endothelial permeability, the cells were incubated with the potent activator of TJ assembly, forskolin (FSK; BioShop, Burlington, ON, Canada), for 24 hours at a concentration of 10 μM. […] After allowing cell sedimentation for 30 min at room temperature, plates were locked into the RTCA DP instrument for continuous recording of impedance changes at three different AC frequencies (10 kHz, 25 kHz, 50 kHz), which are expressed as Cell Index (CI) values. CI is a dimensionless parameter based on relative impedance changes referenced to the values of the cell-free electrode at each frequency: [formula] where N is the number of the frequency points at which the impedance was measured, whereas […] […] Thus, CI is a quantitative measure of cell status in a well, including the cell number, cell viability, adhesion degree, and morphology. Although CI is measured at three frequencies, only the most sensitive readings are returned by the software as a function of time and reported as the final results. […]

C=C[C@@]1(C)CC(=O)[C@]2(O)[C@@]3(C)[C@@H](O)CCC(C)(C)[C@@H]3[C@H](O)[C@H](OC(C)=O)[C@@]2(C)O1 [FSK, forskolin, reference compound]
barrier-protecting effect (Cell Index): barrier-protecting effect
